According to PMC7819943, “Rice protein-binding microarrays: a tool to detect cis-acting elements near promoter regions in rice”:
Some of the results follow.

The chains behind the UniProt entries cited, without tags or fusion partners.
UniProt Q0JBA9, entry or part of it: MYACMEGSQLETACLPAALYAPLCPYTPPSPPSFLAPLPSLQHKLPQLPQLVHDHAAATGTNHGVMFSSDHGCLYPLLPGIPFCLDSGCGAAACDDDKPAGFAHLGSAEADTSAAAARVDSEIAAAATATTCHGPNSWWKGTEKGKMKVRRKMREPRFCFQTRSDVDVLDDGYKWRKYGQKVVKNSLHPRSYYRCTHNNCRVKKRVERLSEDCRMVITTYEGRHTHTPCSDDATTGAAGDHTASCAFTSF

molecular target: OsWRKY34 (Oryza sativa, UniProt Q0JBA9 1-250); assay: protein-binding microarray (RPBM); PBS, 2% BSA, 51.3 ng/ul salmon testes DNA, 50 uM zinc acetate, 200 nM TF, 25 C, 1 h; high values mean tight binding; conditions: protein: recombinant; tags: N-terminal polyhistidine and DsRed monomer fusion (pET32a); label: CyDye5-dUTP incorporated in the synthesized complementary strand; 3' TTTTT single-stranded linker to array surface; dsDNA, one strand shown
Procedure, shortened: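 The binding signal for each feature is its fluorescence intensity in arbitrary units. An Axon 4000B scanner was used to read a custom Agilent array that had been made double-stranded with Cy5-dUTP primer extension, blocked with 2% BSA, incubated at 25 °C for 1 h with 200 nM protein in PBS, 2% BSA, salmon testes DNA and 50 µM zinc acetate, and washed. The protein was an N-terminal polyhistidine–DsRed transcription factor fusion from E. coli BL21-CodonPlus, purified on Ni–NTA.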

Sequence	binding signal
TTCTCTCTCTCTCTTTTTTTTTCTTCCTTTCTTTTTGGATCGGAGTCACCTAGTGCAG	8820 fluorescence intensity (a.u.)
GTATTATTACATAGGTACCATTTGGTCTCCGGTCCTCATCCGGAGTCACCTAGTGCAG	8410 fluorescence intensity (a.u.)
CCTCTCTCCGGCCGCCTATAAATTCGGCGCCAATGTGCACCGGAGTCACCTAGTGCAG	11300 fluorescence intensity (a.u.)
TACTTCTTAGCTACTTCTATTGCCCATTGTCATTCTCTTTCGGAGTCACCTAGTGCAG	13000 fluorescence intensity (a.u.)
AGCCGCACATCCCCGCCTCTTCCCGCCGCCGTCCGCCGCGCGGAGTCACCTAGTGCAG	9290 fluorescence intensity (a.u.)
GCTGCTTCTTCGCTTCAATTCTGTGTTGGTAGCAGGCGACCGGAGTCACCTAGTGCAG	8180 fluorescence intensity (a.u.)
CTGCCGGCTGCTCAATTTATTCCCTTGCTGTTTCATTTCGCGGAGTCACCTAGTGCAG	45500 fluorescence intensity (a.u.)
CGATGGGGTATTGTGTGCGTATGGGATGCGGAGTCGAATTCGGAGTCACCTAGTGCAG	10000 fluorescence intensity (a.u.)
GGGGTTCGCGTTCGCGTCGCTCTCGTCTCGTCTCGTCATGCGGAGTCACCTAGTGCAG	9010 fluorescence intensity (a.u.)
TCCCATCCCATCGATCGATCGATCTCATGCGGCAGCTTTACGGAGTCACCTAGTGCAG	8510 fluorescence intensity (a.u.)
GAGAGAAGCTCTCTCTCACTCACTCGCTCGCCACACACCACGGAGTCACCTAGTGCAG	8440 fluorescence intensity (a.u.)
TTCTTTGTTTTCACGGTATCATTTCACAAGGGCTTGTCCTCGGAGTCACCTAGTGCAG	8470 fluorescence intensity (a.u.)
ATCCTCTGTTTTTCCTGCTACTATGTTTTCTCGATCTTTCCGGAGTCACCTAGTGCAG	12900 fluorescence intensity (a.u.)
ATTAATAGCATTTTGGTTATTCTCACGCTTCACTATTTTTCGGAGTCACCTAGTGCAG	11300 fluorescence intensity (a.u.)
GGCTGAGAAACCACCACTGTCTCCATCGTCGGTCAGCCCGCGGAGTCACCTAGTGCAG	11000 fluorescence intensity (a.u.)
TAATTATTTATAGCTCTATGGTCCACATTGTCCTTTGTGTCGGAGTCACCTAGTGCAG	8340 fluorescence intensity (a.u.)
TATGGCTTGAATTGCTTCTTATTTGGTGCTGGAATGGTTACGGAGTCACCTAGTGCAG	8810 fluorescence intensity (a.u.)
CTCCAGCTTGTCCAGCGCCGCCTTCCGCTGCTCGTCCTCCCGGAGTCACCTAGTGCAG	8790 fluorescence intensity (a.u.)
GCCTGGCTCATCGGTTACCCTTTCTCACCGACTGTACTACCGGAGTCACCTAGTGCAG	8790 fluorescence intensity (a.u.)
AAAGTTAAAACACTCTTATTCTCTTGTTGTTGTGTTCCTTCGGAGTCACCTAGTGCAG	8790 fluorescence intensity (a.u.)
GTGTTGTGGCGGCGGATTGGATCAGTGGCCGCTGTCGCGCCGGAGTCACCTAGTGCAG	8360 fluorescence intensity (a.u.)

Shown as a markdown table: part of the list above

| Sequence | binding signal |
| --- | --- |
| AGCCGCACATCCCCGCCTCTTCCCGCCGCCGTCCGCCGCGCGGAGTCACCTAGTGCAG | 9290 fluorescence intensity (a.u.) |
| GCTGCTTCTTCGCTTCAATTCTGTGTTGGTAGCAGGCGACCGGAGTCACCTAGTGCAG | 8180 fluorescence intensity (a.u.) |
| CTGCCGGCTGCTCAATTTATTCCCTTGCTGTTTCATTTCGCGGAGTCACCTAGTGCAG | 45500 fluorescence intensity (a.u.) |
| CGATGGGGTATTGTGTGCGTATGGGATGCGGAGTCGAATTCGGAGTCACCTAGTGCAG | 10000 fluorescence intensity (a.u.) |
| GGGGTTCGCGTTCGCGTCGCTCTCGTCTCGTCTCGTCATGCGGAGTCACCTAGTGCAG | 9010 fluorescence intensity (a.u.) |
| TCCCATCCCATCGATCGATCGATCTCATGCGGCAGCTTTACGGAGTCACCTAGTGCAG | 8510 fluorescence intensity (a.u.) |
| GAGAGAAGCTCTCTCTCACTCACTCGCTCGCCACACACCACGGAGTCACCTAGTGCAG | 8440 fluorescence intensity (a.u.) |

Further results follow:

Sequence	binding signal
TCTTCATATCTTTTGGCTGAAACCAAGCCAACTACTATACCGGAGTCACCTAGTGCAG	8280 fluorescence intensity (a.u.)
TTATCTAGATTCGTATTACTAGGATGTGTCTCGTTCAACCCGGAGTCACCTAGTGCAG	8780 fluorescence intensity (a.u.)
GGCGTTGGTCACCTCCCGTGAGTCGTCCTCTATTCCTCTTCGGAGTCACCTAGTGCAG	11100 fluorescence intensity (a.u.)
ACACTATTGAGCGCTTACCATGGGCATTTCGCGTATGATTCGGAGTCACCTAGTGCAG	8980 fluorescence intensity (a.u.)
AATACCAACTTTGCAGTTTATTTCTGCAGTATTTTACTATCGGAGTCACCTAGTGCAG	8770 fluorescence intensity (a.u.)
CATCGTCATCTTTGTTGTCATCGGGTGTGGCAGTGAACATCGGAGTCACCTAGTGCAG	9720 fluorescence intensity (a.u.)
AGTTTCCAACCCAATTGGCCACTTACCATGCTATTATATACGGAGTCACCTAGTGCAG	8560 fluorescence intensity (a.u.)
CCCATTTAACTTCACAACACATCTCATTGTTTGTTACCAACGGAGTCACCTAGTGCAG	8270 fluorescence intensity (a.u.)
CACCATCCTTCCCCGGTGCTTGCCCATGTACCTCCTCTCACGGAGTCACCTAGTGCAG	8680 fluorescence intensity (a.u.)
AGAGGGATGGGTGTTTGATTGGAGTGGGTTGGGAGCCATGCGGAGTCACCTAGTGCAG	9390 fluorescence intensity (a.u.)
TGTTGGCATCTATTATCCCACATCGACGTAACCATTTTTACGGAGTCACCTAGTGCAG	10800 fluorescence intensity (a.u.)
TATATTATCTTGATTTTCTGATCCCGACATCTAGCCATTACGGAGTCACCTAGTGCAG	9680 fluorescence intensity (a.u.)
GGCCTATTTAGTTTGGTGTCATTTTAAATCATACCACTATCGGAGTCACCTAGTGCAG	8180 fluorescence intensity (a.u.)
AATAGATGACGTTGTTGACTTTTTCTCATATGTTTGACCACGGAGTCACCTAGTGCAG	13000 fluorescence intensity (a.u.)
TCTCTCTCTCTCTCTCTCTCTACTCTCTCCCTACAAGTTTCGGAGTCACCTAGTGCAG	10100 fluorescence intensity (a.u.)
CTATCGCCACATCTCACCGGCTGCAATAATTGGGCATATCCGGAGTCACCTAGTGCAG	9190 fluorescence intensity (a.u.)
ATAAGGGGTGAGGATCATAGCTCATGTTGTTTGACGGTTTCGGAGTCACCTAGTGCAG	9440 fluorescence intensity (a.u.)
GTTCATCGTATTTTTTTTTCTTTGAGTACCATTGACATGTCGGAGTCACCTAGTGCAG	8710 fluorescence intensity (a.u.)
TACTACTCTTCTTCTTCTTCTTCTCTTCTTCTTCATTGGACGGAGTCACCTAGTGCAG	9400 fluorescence intensity (a.u.)
TCCCAACGCCCAACCTGCACACACTTCACTCTCGCTGCTGCGGAGTCACCTAGTGCAG	9290 fluorescence intensity (a.u.)
AGCTGGTCATATTCTATGTTGATTATCTTCATGGTATGAACGGAGTCACCTAGTGCAG	9730 fluorescence intensity (a.u.)
